PubChem BioAssay AID1259425 | University of Nebraska Medical Center, 2018
Here is an unselected part of about 14,000 reagents. Not all columns of the deposit are shown. The record does not give: the time to read-out.

Purpose: 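Find knockdowns that reproduce the gene expression pattern seen when KSR1 is lost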 (primary screen)
Cell system: HCT116 human colon cancer cells
Reagents: siRNA pool against human genes, 50 nM siRNA
Measurement: 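mRNA of six signature genes measured together by branched-DNA assay after 50 nM siRNA pool, blank removed, divided by geometric mean of two housekeeping genes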
Scale: BNIP3L mRNA: higher = more BNIP3L transcript after knockdown; NDRG1 mRNA: higher = more NDRG1 transcript after knockdown

target gene,"BNIP3L mRNA, set 1","NDRG1 mRNA, set 1"
NPTX2 (neuronal pentraxin 2),0.139,0.157
MECR (mitochondrial trans-2-enoyl-CoA reductase),0.0478,0.234
WNT2B (Wnt family member 2B),0.056,0.245
DHRS7 (dehydrogenase/reductase 7),0.0755,0.163
SMC1B (structural maintenance of chromosomes 1B),0.163,0.201
SOBP (sine oculis binding protein homolog),0.138,0.13
LMX1A (LIM homeobox transcription factor 1 alpha),0.0906,0.178
CCR1 (C-C motif chemokine receptor 1),0.172,0.16
CCNE2 (cyclin E2),0.0759,0.098
TRPM5,0.0715,0.182
TBKBP1 (TBK1 binding protein 1),0.0803,0.527
C2CD2L (C2CD2 like),0.0738,0.346
"METTL4 (methyltransferase 4, N6-adenosine)",0.0943,0.381
DNTTIP1 (deoxynucleotidyltransferase terminal interacting protein 1),0.212,0.945
CSNK2A2 (casein kinase 2 alpha 2),0.0337,0.551
BICD1 (BICD cargo adaptor 1),0.13,0.267
MAGEC2 (MAGE family member C2),0.086,0.204
HEMGN (hemogen),0.178,2.68
RNF141 (ring finger protein 141),0.0989,0.207
STK11 (serine/threonine kinase 11),0.0953,0.183
JCHAIN (joining chain of multimeric IgA and IgM),0.199,0.399
AIM2 (absent in melanoma 2),0.238,0.0662
KATNB1 (katanin regulatory subunit B1),0.0974,0.301
GON7 (GON7 subunit of KEOPS complex),0.089,0.171
TNFRSF10C (TNF receptor superfamily member 10c),0.0955,0.129
ZNF212 (zinc finger protein 212),0.0692,0.167
ABCG8 (ATP binding cassette subfamily G member 8),0.171,0.0616
FIP1L1 (factor interacting with PAPOLA and CPSF1),0.143,0.788
INSAF (retired record),0.0525,0.287
ZNF215 (zinc finger protein 215),0.0987,0.11
UCHL5 (ubiquitin C-terminal hydrolase L5),0.0795,0.18
CCNG1 (cyclin G1),0.0973,0.106
TCP1 (t-complex 1),0.278,0.956
"ABHD17A (abhydrolase domain containing 17A, depalmitoylase)",0.0976,0.428
"ALG8 (ALG8 alpha-1,3-glucosyltransferase)",0.126,0.188
CDKL5 (cyclin dependent kinase like 5),0.0911,0.117
CLUL1 (clusterin like 1),0.1,0.2
LSM3,0.202,0.337
TESMIN (testis expressed metallothionein like protein),0.196,0.0676
MYO9B (myosin IXB),0.0739,0.288
GGT5 (gamma-glutamyltransferase 5),0.171,0.0281
SCN8A (sodium voltage-gated channel alpha subunit 8),0.144,0.166
IFRD1 (interferon related developmental regulator 1),0.115,0.279
TNMD (tenomodulin),0.101,0.37
PAN2 (poly(A) specific ribonuclease subunit PAN2),0.0831,0.191
NHERF2 (NHERF family PDZ scaffold protein 2),0.192,0.372
CPSF1 (cleavage and polyadenylation specific factor 1),0.133,0.431
LGR6 (leucine rich repeat containing G protein-coupled receptor 6),0.0749,0.129
ANKRD13C-DT (ANKRD13C divergent transcript),0.077,0.439
ANKRD17 (ankyrin repeat domain 17),0.221,0.243
